The results in this text go back to paper PMC7982423.

These are yes or no findings as the source states them, for the method shown. In cells and extracts the contact can be indirect. These calls come from enrichment with a bait or labelling near it, and not all partners need be listed. For some of these results: No binding means not detected with the bait. Where a sequence is shown, tags or fusion partners need not be part of it.

Assay [1] addresses T1, p110δ with a C-terminal AviTag (p110δ-AviTag) (mouse) (UniProt O35904).
T1 sequence (chain, biotin on the AviTag (biotinylated in vivo by BirA)): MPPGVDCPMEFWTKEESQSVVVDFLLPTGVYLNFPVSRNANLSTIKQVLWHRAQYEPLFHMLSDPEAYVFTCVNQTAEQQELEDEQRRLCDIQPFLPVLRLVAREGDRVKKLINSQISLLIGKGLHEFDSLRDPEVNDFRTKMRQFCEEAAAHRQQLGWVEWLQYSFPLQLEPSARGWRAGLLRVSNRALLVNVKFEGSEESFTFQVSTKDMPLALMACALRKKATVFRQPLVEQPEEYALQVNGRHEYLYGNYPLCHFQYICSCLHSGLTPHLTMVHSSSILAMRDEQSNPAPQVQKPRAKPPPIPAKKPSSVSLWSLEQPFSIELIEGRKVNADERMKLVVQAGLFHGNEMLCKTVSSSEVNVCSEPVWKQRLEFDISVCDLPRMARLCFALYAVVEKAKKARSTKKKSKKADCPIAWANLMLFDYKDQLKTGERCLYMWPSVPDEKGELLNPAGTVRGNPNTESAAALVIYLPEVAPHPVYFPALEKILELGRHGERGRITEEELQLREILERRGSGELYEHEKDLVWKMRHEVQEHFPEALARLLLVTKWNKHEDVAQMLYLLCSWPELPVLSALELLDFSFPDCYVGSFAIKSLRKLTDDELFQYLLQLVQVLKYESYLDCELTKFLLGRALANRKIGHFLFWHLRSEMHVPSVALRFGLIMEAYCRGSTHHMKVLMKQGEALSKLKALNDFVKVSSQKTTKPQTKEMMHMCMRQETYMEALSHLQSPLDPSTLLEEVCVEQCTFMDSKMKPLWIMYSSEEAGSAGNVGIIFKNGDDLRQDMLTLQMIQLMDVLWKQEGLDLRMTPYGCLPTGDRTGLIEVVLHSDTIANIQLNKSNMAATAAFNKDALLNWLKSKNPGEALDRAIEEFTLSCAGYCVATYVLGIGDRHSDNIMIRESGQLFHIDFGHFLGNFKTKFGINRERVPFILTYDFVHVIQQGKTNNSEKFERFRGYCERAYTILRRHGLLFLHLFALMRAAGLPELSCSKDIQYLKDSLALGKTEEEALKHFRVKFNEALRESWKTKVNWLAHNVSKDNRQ
Briefly: affinity purification with mass spectrometry; as a3, CD4+ T cell blasts left unstimulated.

Assay [2] concerns the target T1, p110δ with a C-terminal AviTag (p110δ-AviTag) (mouse). Briefly: affinity purification with mass spectrometry; as a8, naive CD4+ T cells left unstimulated.
Assay [3] shares this target. Briefly: affinity purification with mass spectrometry; streptavidin beads capture biotinylated p110δ-AviTag from lysates of CD4+ T cell blasts stimulated for 1 min by CD3-CD4-crosslinking (unstimulated cells compared); control purifications from BirA^Tg cells; TMT-labelled nLC-MS/MS, three independent experiments; specific: >1.5-fold enriched, p < 0.05.
Assay [4] shares this target. Briefly: affinity purification with mass spectrometry; streptavidin beads capture biotinylated p110δ-AviTag from lysates of naive CD4+ T cells stimulated for 1 min by CD3-CD4-crosslinking (unstimulated cells compared); control purifications from BirA^Tg cells; TMT-labelled nLC-MS/MS, three independent experiments; specific: >1.5-fold enriched, p < 0.05 and not classed as non-specific in blasts.

For assay [5] the target is unchanged. The experiment in a line: affinity purification with mass spectrometry; as a5, CD4+ T cell blasts left unstimulated.
Assay [6] shares this target. The experiment in a line: affinity purification with mass spectrometry; p110δ-AviTag purified on streptavidin beads from TCR-stimulated CD4+ T cell blasts, separated by SDS-PAGE; the 110-120 kDa gel slice analysed by label-free nLC-MS/MS.

B1: GAB3 (Gab-family adaptor protein) (protein, UniProt Q8BSM5 1-595)
chain: MSTGDTVCMGWLIKSPPERKLQRYAWRKRWFVLRRGRMSGNPDVLEYYRNKHSNKPIRVIDLSECTVWKHAGPGFIRKEFQKNFVFIVKTTSRTFYLVAKTEEEMQVWVHSISQVCNFSHLEDGADSMESLSHMPSSFQPSPASSLHTVHVANSALLKDDRNTNSVVTEETRRESEFLFLPDYLILSNCETGRLHHASLPTRCDSWSNSNHSLAQTSFDDVFLDGLQPFISNNLVHPLHHGKVSQDFPSIRPQASLIWNREINGPSRNLMSSSPLLESSLNPTVHVEEKQVSLPSGVKELNIMSNTPPPRPPKPSYLSEQRQDQPLLTGHSSNKKPGYTMVPRRISLSGLDHVGSWKGDVQSQSLRHRDKRLSLNLPCKFSPIYPTASPSAEDSYVPMSPKGTASELRPHCSQDDYIPMSSSMLPELPADLEPPPVNRNLKPQRKSRPPPLDSRNLSTIQEHTSLTRTYTVPCNRTSFLSPQRNGINCARLFSTPSEEEEEEEEEEEEEEEEEKYIQMEEYGTVSSLSRSALSWTKKFSLDYLALDFNSTSPAPVQKKLLLSEEQRVDYVQVDEQKTQALRSTKQEWTDERQSKV
With B1, the binding result is reported as “no binding (only cells without TCR stimulation)” in assay [1], “no binding (only cells without TCR stimulation)” in assay [2], “binds” in assay [3] and “binds” in assay [4].

B2: STS-2 (UBASH3A), protein phosphatase (enzyme, UniProt Q3V3E1 1-624)
chain: MAAGETQLYAKVSNKLKGRSTPSLLDPLLAMGFPTHTALKALAATGRKTAEAAADWLHGHCNDPSLDDPIPQEYALFLCPTGPLLEKLQEFWRESRRQCAKNRAHEVFPHVTLCDFFTCEDQKVECLYEALRRAGDRILGSFPTLVPLVLHSSISYLGFFINDSPADAIREFAMAFATEAAVLADCTIKPCTKQLHLTLAHKFYPHHQRTLEQLAKAIQPSHSCQWTAALYSRDMRFVHYQTLKALFQYKPQNADELMLSAGDYIFVDPTQQEEASEGWAIGISHRTGCRGFLPENYTERANEADTWVKHRTYTFNLAMDLNSRKDFEASCRGNGEPHTPSMSKSVSSIQALQATISRRGILVVRHGERVDQVFGKSWLQQCTTADGKYYRPDLNFPRSLPRRSNGIKDFENDPPLSSCGIFQARLAGEALLDSGVRVTAVFASPALRCVQTAKHILEELKLEKKLKIRVEPGIFEWMKWEASKATLTFLTLEELKEANFNVDLDYRPALPRCSLMPAESYDQYVERCAVSMGQIINTCPQDMGITLIVSHSSALDSCTRPLLGLPPRECGDFAQLVRKIPSLGMCFCEENREDGKWDLVNPPVKTLTHGANSVFNWRNWISSN
As to B2, the binding result in assay [1] is “no binding (only cells without TCR stimulation)”; in assay [2], “no binding (only cells without TCR stimulation)”; in assay [3], “binds”; in assay [4], “binds”.

B3: CD5 (transmembrane receptor) (receptor, UniProt P13379 24-494)
chain: QSGRGGLDIQVMLSGSNSKCQGQVEIQMENKWKTVCSSSWRLSQDHSKNAQQASAVCKQLRCGDPLALGPFPSLNRPQNQVFCQGSPWSISNCNNTSSQDQCLPLSLICLEPQRTTPPPTTTPPTTVPEPTAPPRLQLVPGHEGLRCTGVVEFYNGSWGGTILYKAKDRPLGLGNLICKSLQCGSFLTHLSGTEAAGTPAPAELRDPRPLPIRWEAPNGSCVSLQQCFQKTTAQEGGQALTVICSDFQPKVQSRLVGGSSVCEGIAEVRQRSQWEALCDSSAARGRGRWEELCREQQCGDLISFHTVDADKTSPGFLCAQEKLSQCYHLQKKKHCNKRVFVTCQDPNPAGLAPGTVASIILTLVLLVVLLAMCGPLVYKKLVKKFRQKKQRQWIGPTGVNQNMSFHRSHTATVRSQVENPTASHVDNEYSQPPRNSHLSAYPALEGALHRSSTQPDNSSDSDYDLQVAQRL
In the case of B3, the binding result in assay [1] was “no binding (only cells without TCR stimulation)”; in assay [2], “no binding (only cells without TCR stimulation)”; in assay [3], “binds”; in assay [4] it was “binds”.

B4: BCAP (adaptor protein, product of Pik3ap1) (protein, UniProt Q9EQ32 1-811)
chain: MAASGWGRGCDILIFYSPDAEEWCQYLQDLFVSCRQVRSQKTQTYRLVPDASFSAQDLWVFRDARCVLVLLSAGLVGCFGQPGLLPMLQRACHPPQRVVRLLCGVQPGDEDFQAFFPDWAHWQEMTCDDEPETYLAAVRKAISEDSGCDSVTDTEPEDERELPFSKQTNLPPEISPGNLMVVQPDRIRCGAETTVYIIVRCKLDEKVSTEAEFSPEDSPSIRVEGTLENEYTVSVKAPDLSSGNVSLKVYSGDLVVCETTVSYYTDMEEIGNLLSSAANPVEFMCQAFKIVPYNTETLDKLLTESLKNNIPASGLHLFGINQLEEDDMMTNQRDEELPTLLHFAAKYGLKNLTALLLTCPGALQAYSVANKHGHYPNTIAEKHGFRDLRQFIDEYVETVDMLKTHIKEELMQGEEADDVYESMAHLSTDLLMKCSLNPGCDDELYESMAAFAPAATEDLYVEMLQASAGNPVSGESFSRPTKDSMIRKFLEGNSVKPASWEREQHHPYGEELYHIVDEDETFSVDLANRPPVPVPRPEASAPGPPPPPDNEPYISKVFAEKSQERLGNFYVSSESIRKEPLVRPWRDRPPSSIYDPFAGMKTPGQRQLITLQEQVKLGIVNVDEAVLHFKEWQLNQKKRSESFRFQQENLKRLRESITRRRKEKPKSGKHTDLEITVPIRHSQHLPEKVEFGVYESGPRKSVLPARTELRRGDWKTDSMSSTASSTSNRSSTRSLLSVSSGMEGDNEDNEIPEITRSRGPGPTQVDGAPVVTGTPVGTLERPPRVPPRAASQRPLTRESFHPPPPVPPRGR
modifications: phosphotyrosine after TCR stimulation (residues not told)
Turning to B4, the binding entry is recorded as “no binding (only cells without TCR stimulation)” in assay [1], “no binding (only cells without TCR stimulation)” in assay [5], “binds” in assay [6] and “binds” in assay [3].
